Source: patent US20180162932A1 (ACADEMISCH MEDISCH CENTRUM, published 2018)
These are yes or no findings as the source states them, for the method shown. Some results given as binding are weak or reduced against the parent protein; the word gives no strength. Values belong to the binder of their own block, whether it stands above or below them.

The chains behind the UniProt entries cited, without tags or fusion partners. Where a name states a change or a piece, a line headed by the entry shows the natural chain unless it says otherwise.
UniProt P12643: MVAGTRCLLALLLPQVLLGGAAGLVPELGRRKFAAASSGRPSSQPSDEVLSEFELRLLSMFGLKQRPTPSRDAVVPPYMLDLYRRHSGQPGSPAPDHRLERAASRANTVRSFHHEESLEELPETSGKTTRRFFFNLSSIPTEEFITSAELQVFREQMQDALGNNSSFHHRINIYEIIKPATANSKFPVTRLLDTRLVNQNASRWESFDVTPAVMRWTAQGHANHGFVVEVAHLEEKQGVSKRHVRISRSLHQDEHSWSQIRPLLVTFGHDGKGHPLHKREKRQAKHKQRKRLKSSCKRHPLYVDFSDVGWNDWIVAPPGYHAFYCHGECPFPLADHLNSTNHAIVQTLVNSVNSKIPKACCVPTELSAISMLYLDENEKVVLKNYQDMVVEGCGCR

Tests used:
[1] = target: T1, human mature bone morphogenic protein 5 (human, UniProt P22003 340-454); assay: SPR (IBIS), VHH spotted on the chip, BMP5 injected
T1 construct: Often printed as BMPS in the text; also called BMP5; BMPS (so in the source)
T1 sequence: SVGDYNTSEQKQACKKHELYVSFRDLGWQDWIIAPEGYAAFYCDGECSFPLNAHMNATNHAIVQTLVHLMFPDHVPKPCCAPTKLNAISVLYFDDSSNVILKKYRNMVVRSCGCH

[2] = target: T1, human mature bone morphogenic protein 5; assay: SPR, VHH on chip, BMP injected
Procedure: (§1) Serial dilutions (2.0-10 μg/ml) of purified VHHs were spotted on an amine-specific SensEye gold-film gel-type SPRchip (Ssens), using a Continuous Flow Microspotter (Wasatch Microfluidics, Salt Lake City, Utah, United States) as described (Lokate et al., 2007). BMP binding was analyzed on an IBIS MX96 (IBIS Technologies, Enschede, The Netherlands) instrument by performing injections with dilution series (0.05-2.0 μg/ml) of recombinant BMPs on the VHH-coated chip. In each injection, BMPs were injected and incubated for 8 min, followed by 15 min thorough washing with binding buffer (PBS+0.05% Tween20+0.05% sodium azide) to measure dissociation. Epitope binning was done by injecting VHH dilutions (2.0 μg/ml) over the chip, immediately after the dissociation step. Injections with blank binding buffer were used as reference. After each concatenated injection, the chip was regenerated with 10mM glycine-HCl, pH 2.0. Experimental data were processed with SPRintX software (IBIS Technologies) and kinetic parameters were determined using Scrubber2 software (BioLogic Software, Campbell, ACT, Australia). Binding constants were obtained by global fitting to a one-site binding model.

[3] = target: T2, human mature bone morphogenic protein 6 (human, UniProt P22004 375-513); assay: SPR (IBIS), VHH spotted on the chip, BMP6 injected
T2 construct: also called BMP6; BMP-6
T2 sequence: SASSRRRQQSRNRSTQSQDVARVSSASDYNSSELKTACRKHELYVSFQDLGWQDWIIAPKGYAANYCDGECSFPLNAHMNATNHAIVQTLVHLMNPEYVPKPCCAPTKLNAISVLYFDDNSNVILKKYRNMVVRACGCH

[4] = target: T3, human mature bone morphogenic protein 4 (human, UniProt P12644 295-408); assay: summary
T3 sequence: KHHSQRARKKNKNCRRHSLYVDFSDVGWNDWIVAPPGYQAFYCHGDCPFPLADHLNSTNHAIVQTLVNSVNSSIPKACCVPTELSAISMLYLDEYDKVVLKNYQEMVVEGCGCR

[5] = target: T4, mature bone morphogenic protein 2 (human, UniProt P12643 283-396); assay: summary
[6] = target: T4, mature bone morphogenic protein 2; assay: SPR (IBIS), VHH spotted on the chip, BMP2 injected
Procedure: In a first set of experiments, controls and VHHs (either as monomers or dimers) were coupled to SPR chips and the measurement of BMP affinities was obtained by injecting the different BMPs to the plate.
as §1

[7] = target: T3, human mature bone morphogenic protein 4; assay: western blot, unreduced mature recombinant BMPs
[8] = target: T4, mature bone morphogenic protein 2; assay: western blot, unreduced mature recombinant BMPs
[9] = target: T3, human mature bone morphogenic protein 4; assay: SPR (IBIS), VHH spotted on the chip, BMP4 injected
[10] = target: T5, human mature bone morphogenic protein 7 (human, UniProt P18075 293-431); assay: SPR, VHH on chip, BMP injected
T5 construct: also called BMP7; BMP-7
T5 sequence: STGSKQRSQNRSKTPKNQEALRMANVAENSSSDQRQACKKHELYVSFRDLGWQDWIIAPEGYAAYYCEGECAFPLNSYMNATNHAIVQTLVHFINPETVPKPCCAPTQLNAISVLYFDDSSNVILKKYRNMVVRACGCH
Procedure: as §1

[11] = target: T3, human mature bone morphogenic protein 4; assay: SPR, VHH on chip, BMP injected
[12] = target: T4, mature bone morphogenic protein 2; assay: SPR, VHH on chip, BMP injected
[13] = target: T3, human mature bone morphogenic protein 4; assay: western blot of unreduced recombinant BMP, C8C8 as primary antibody
[14] = target: T4, mature bone morphogenic protein 2; assay: as above
[15] = target: T6, human mature bone morphogenic protein 4 (human) (UniProt P12644); assay: summary
T6 sequence: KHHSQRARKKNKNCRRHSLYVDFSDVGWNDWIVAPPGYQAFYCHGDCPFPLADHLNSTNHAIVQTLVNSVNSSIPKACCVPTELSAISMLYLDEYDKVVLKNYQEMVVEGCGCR

[16] = target: T6, human mature bone morphogenic protein 4 (human); assay: western blot, unreduced mature recombinant BMPs
[17] = target: T6, human mature bone morphogenic protein 4 (human); assay: SPR sandwich (epitope binning): BMP4 captured on the spotted molecule, then C4C4 injected [B, F]
[18] = target: T6, human mature bone morphogenic protein 4 (human); assay: SPR sandwich cross-binding, C8 or E7 on chip
[19] = target: T6, human mature bone morphogenic protein 4 (human); assay: SPR (IBIS), VHH spotted on the chip, BMP4 injected
[20] = target: T6, human mature bone morphogenic protein 4 (human); assay: SPR, VHH on chip, BMP injected
[21] = target: T6, human mature bone morphogenic protein 4 (human); assay: western blot of unreduced recombinant BMP, C4C4 as primary antibody
[22] = target: T1, human mature bone morphogenic protein 5; assay: summary of SPR results

B1: C8E7 hetero-bihead (designed binder)
chain: EVQLVESGGGLVQAGGSLRLSCAASGRTFRINDMGWYRQAPGKSRDMVARITSGGNTNYADSVKGRFTISRDNAKNTVYLQMNSLKPEDTAVYYCNADGLRFDSTRYRPFDSWGQGTQVTVSSGGGGSGGGGSEVQLVESGGGLVQAGGSLRLSCAASGSIRGFVAMAWYRQAPGKQREWVATVTNGGTLYGDSVKGRFTGSRDNAKNTVYLQMNSLKPEDTAVYYCALRQIGASGYDYWGQGTQVTVSS
binding [1]: binds
binding [2]: binds
binding [3]: binds

B4: VHH E7 (VHH)
VHH: EVQLVESGGGLVQAGGSLRLSCAASGSIRGFVAMAWYRQAPGKQREWVATVTNGGTLYGDSVKGRFTGSRDNAKNTVYLQMNSLKPEDTAVYYCALRQIGASGYDYWGQGTQVTVSS
notes: also called E7 monomer
binding [22]: binds
binding [1]: binds
binding [2]: binds

The next lines start with the values.

binding [4]: binds
binding [5]: binds
binding [6]: binds
binding [7]: binds
binding [8]: binds
binding [9]: binds
binding [10]: binds
binding [11]: binds
binding [12]: binds
binding [13]: binds
binding [14]: binds
B2: C8C8 homo-bihead (designed binder)
chain: EVQLVESGGGLVQAGGSLRLSCAASGRTFRINDMGWYRQAPGKSRDMVARITSGGNTNYADSVKGRFTISRDNAKNTVYLQMNSLKPEDTAVYYCNADGLRFDSTRYRPFDSWGQGTQVTVSSGGGGSGGGGSEVQLVESGGGLVQAGGSLRLSCAASGRTFRINDMGWYRQAPGKSRDMVARITSGGNTNYADSVKGRFTISRDNAKNTVYLQMNSLKPEDTAVYYCNADGLRFDSTRYRPFDSWGQGTQVTVSS

binding [15]: binds
binding [6]: binds
binding [16]: binds
binding [17]: binds
binding [18]: binds
binding [19]: binds
binding [20]: binds
binding [12]: binds
binding [21]: binds
B3: C4C4 homo-bihead (designed binder)
chain: EVQLVESGGGLVQAGGSLRLSCAASGRTFSTYAMGWFRQAPGKEREFVAAISKGGGITYYSDSVRGRFTISKENAKNTVYLQMNSLKPEDTAVYYCAADPVSSVAKSPVAYPYWGQGTQVTVSSGGGGSGGGGSEVQLVESGGGLVQAGGSLRLSCAASGRTFSTYAMGWFRQAPGKEREFVAAISKGGGITYYSDSVRGRFTISKENAKNTVYLQMNSLKPEDTAVYYCAADPVSSVAKSPVAYPYWGQGTQVTVSS
notes: also called C4C4 dimer
